Reference: PubChem BioAssay AID1671190 (National Center for Advancing Translational Sciences (NCATS), 2021)
About 6,100 (1.1%) of roughly 580,000 compounds were called active. Inconclusive results, whose numbers are uncertain, are shown with a selection of clear calls. The call rests on the fitted dose curve; in most records, active means well fitted inhibition curve with a large enough effect; inconclusive means small, poorly fitted or top-dose-only effect, or another doubt; inactive means no such curve, though single readings can be large or run the other way. Potencies of inconclusive entries are doubtful fits and often do not repeat. Square brackets hold non-standard residues; d marks the D form. Peptide text beside a SMILES is read from it.

Protein sequences, listed by entry. Tags and fused reporters are not part of them. Lines headed by an entry give the natural chain unless they say otherwise; changes in a name come on top.
UniProt P18054: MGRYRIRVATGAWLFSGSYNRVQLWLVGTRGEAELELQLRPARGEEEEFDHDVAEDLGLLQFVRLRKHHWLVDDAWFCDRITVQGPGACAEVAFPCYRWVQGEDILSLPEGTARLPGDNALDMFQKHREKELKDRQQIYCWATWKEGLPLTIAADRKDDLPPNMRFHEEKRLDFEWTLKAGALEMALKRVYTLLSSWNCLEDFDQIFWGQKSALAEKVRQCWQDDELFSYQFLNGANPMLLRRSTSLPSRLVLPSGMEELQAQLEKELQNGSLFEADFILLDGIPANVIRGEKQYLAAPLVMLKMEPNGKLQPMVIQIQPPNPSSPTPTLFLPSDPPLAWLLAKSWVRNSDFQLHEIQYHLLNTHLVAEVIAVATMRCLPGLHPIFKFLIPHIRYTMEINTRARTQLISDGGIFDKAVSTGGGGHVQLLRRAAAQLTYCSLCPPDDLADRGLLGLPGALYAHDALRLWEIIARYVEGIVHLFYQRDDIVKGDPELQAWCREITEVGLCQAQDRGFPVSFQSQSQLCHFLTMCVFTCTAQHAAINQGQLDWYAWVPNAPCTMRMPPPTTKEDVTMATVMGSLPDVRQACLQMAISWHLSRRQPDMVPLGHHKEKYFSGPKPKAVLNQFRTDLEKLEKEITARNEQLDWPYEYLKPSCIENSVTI

target: Polyunsaturated fatty acid lipoxygenase ALOX12 (Homo sapiens) (UniProt P18054); assay: Primary qHTS assay for inhibitors of human arachidonate 12S-lipoxygenase (ALOX12): Round 2; conditions: purified 12hLO, xylenol orange hydroperoxide absorbance; activity change, negative = inhibition: at 108 µM (top of the series) unless noted
Method in brief: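 Hydroperoxide product was detected by ferrous iron/xylenol orange as the 573 to 405 nm absorbance ratio. Arachidonic acid at 40 uM (final) was turned over for 30 min at room temperature by 150 nM human 12hLO, pH 7.0 Hepes buffer, after 15 min compound preincubation.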
On the % scale 0 is the no-effect control and ±100 the full control effect; potency means the concentration at half of the fitted maximal effect.

Row | Compound | Potency | activity change, negative = inhibition
1 | CCOc1ccc(NC(=O)c2sc3nc4n(c(=O)c3c2C)CCC4)cc1 | inconclusive: 141 µM [inhibitor, partial curve, poor fit] | 
2 | COCCCN1C(=O)N(Cc2nncn2C(C)C)C(=O)C12CCNCC2 | active: 17.8 µM | 
3 | CCN(CC)S(=O)(=O)c1ccc2c(c1)nc(CCC(=O)OCC(=O)Nc1cc(Cl)cc(Cl)c1)n2C | inactive | 
4 | O=C(c1ccco1)N1CCC2(CCN(Cc3ccccc3)CC2)CC1 | inactive | 
5 | CC(=O)Nc1ccc(/C=C(\C#N)C(=O)NC2CCCCC2C)cc1 (stereo unspecified) | inactive | 
6 | Cn1c(-c2ccco2)n[nH]c1=S | inconclusive: 126 µM [inhibitor, single point] | 
7 | O=C(O)/C=C/c1cccc(Br)c1 | inconclusive: 0.398 µM [inhibitor, partial curve, poor fit] | 
8 | COc1ccccc1Nc1nc(N)nc(CN2CCCCC2)n1 | inactive | 
9 | Cc1cc(C)n(Cc2ccc(C(=O)Nc3cccc(Br)c3)o2)n1 | inconclusive: 8.91 µM [inhibitor, full curve, poor fit] | 
10 | Oc1ccc(C2CC3CC2C2C=CCC32)cc1 (stereo unspecified) | inconclusive: 50.1 µM [inhibitor, partial curve] | 
11 | CC1(C(=O)N2CCN(c3ccc([N+](=O)[O-])cc3)CC2)CC1(Cl)Cl (stereo unspecified) | inconclusive: 2.82 µM [inhibitor, full curve, poor fit] | 
12 | O=C(NC1CC1)C1(c2ccc(Cl)cc2)CCOCC1 |  | inconclusive: -33.5% [inhibitor] [at 176 µM]
13 | C/C(CC(C)C)=N\Oc1nc(C)cc(C)n1 | inconclusive: 17.8 µM [inhibitor, partial curve, poor fit] | 
14 | Cc1ccnc(NC(c2ccc(C(F)(F)F)cc2)c2ccc3cccnc3c2O)c1 (stereo unspecified) | inconclusive: 8.91 µM [inhibitor, full curve, poor fit] | 
15 | CC1CCCC(C)N1C(=O)CSCc1ccc(Cl)cc1 (stereo unspecified) | inactive | 
16 | COc1cccc(/C=C/c2nc3ccccc3s2)c1OC(C)C | inactive | 
17 | CNc1ncnc2ccc(-c3cccc(NS(C)(=O)=O)c3)cc12 | inconclusive: 6.31 µM [inhibitor, full curve, poor fit] | 
18 | Cc1cc(NC(=O)c2ccc(S(=O)(=O)Nc3ccccc3)cc2)no1 | inconclusive: 141 µM [inhibitor, partial curve, poor fit] | 
19 | COCCn1nnnc1C(C(C)C)N1CCC(Cc2ccccc2)CC1 (stereo unspecified) | inconclusive: 17.8 µM [inhibitor, full curve, poor fit] | 
20 | CNC(=O)c1nn(CC(=O)NCCc2ccc(F)cc2)c(=O)c2ccccc12 | inactive | 
21 | NC(=O)c1ccc(CN(C(=O)Cc2cccs2)C2CC2)cc1 | inconclusive: 28.2 µM [inhibitor, partial curve] | 
22 | Cc1nnc(Nc2ccc(Cl)cc2)n(N)c1=O | inactive | 

An excerpt of these results, with tabs:
Row	Compound	Potency	activity change, negative = inhibition
4	O=C(c1ccco1)N1CCC2(CCN(Cc3ccccc3)CC2)CC1	inactive	
5	CC(=O)Nc1ccc(/C=C(\C#N)C(=O)NC2CCCCC2C)cc1 (stereo unspecified)	inactive	
6	Cn1c(-c2ccco2)n[nH]c1=S	inconclusive: 126 µM [inhibitor, single point]	
7	O=C(O)/C=C/c1cccc(Br)c1	inconclusive: 0.398 µM [inhibitor, partial curve, poor fit]	
8	COc1ccccc1Nc1nc(N)nc(CN2CCCCC2)n1	inactive	
9	Cc1cc(C)n(Cc2ccc(C(=O)Nc3cccc(Br)c3)o2)n1	inconclusive: 8.91 µM [inhibitor, full curve, poor fit]	
10	Oc1ccc(C2CC3CC2C2C=CCC32)cc1 (stereo unspecified)	inconclusive: 50.1 µM [inhibitor, partial curve]	
11	CC1(C(=O)N2CCN(c3ccc([N+](=O)[O-])cc3)CC2)CC1(Cl)Cl (stereo unspecified)	inconclusive: 2.82 µM [inhibitor, full curve, poor fit]	
12	O=C(NC1CC1)C1(c2ccc(Cl)cc2)CCOCC1		inconclusive: -33.5% [inhibitor] [at 176 µM]
13	C/C(CC(C)C)=N\Oc1nc(C)cc(C)n1	inconclusive: 17.8 µM [inhibitor, partial curve, poor fit]	
14	Cc1ccnc(NC(c2ccc(C(F)(F)F)cc2)c2ccc3cccnc3c2O)c1 (stereo unspecified)	inconclusive: 8.91 µM [inhibitor, full curve, poor fit]	
15	CC1CCCC(C)N1C(=O)CSCc1ccc(Cl)cc1 (stereo unspecified)	inactive	
16	COc1cccc(/C=C/c2nc3ccccc3s2)c1OC(C)C	inactive	
17	CNc1ncnc2ccc(-c3cccc(NS(C)(=O)=O)c3)cc12	inconclusive: 6.31 µM [inhibitor, full curve, poor fit]	
18	Cc1cc(NC(=O)c2ccc(S(=O)(=O)Nc3ccccc3)cc2)no1	inconclusive: 141 µM [inhibitor, partial curve, poor fit]	
19	COCCn1nnnc1C(C(C)C)N1CCC(Cc2ccccc2)CC1 (stereo unspecified)	inconclusive: 17.8 µM [inhibitor, full curve, poor fit]	
20	CNC(=O)c1nn(CC(=O)NCCc2ccc(F)cc2)c(=O)c2ccccc12	inactive	

Following part:

Row | Compound | Potency | activity change, negative = inhibition
23 | Cc1oc(-c2ccccc2)nc1CC(=O)Nc1ccc(F)cc1F | inconclusive: 89.1 µM [inhibitor, single point] | 
24 | COc1cc(C(=O)NC(=S)NNC(=O)c2ccc3c(c2)OCO3)cc(OC)c1OC | inactive | 
25 | CCOc1cc(CNCCc2ccc(S(N)(=O)=O)cc2)ccc1OCC(=O)NC(C)(C)C | inconclusive: 7.94 µM [inhibitor, partial curve, poor fit] | 
26 | Cc1ccc2c(Cl)cc(Cl)c(OCC(=O)NC(C)(C#N)C3CC3)c2n1 (stereo unspecified) | inconclusive: 8.91 µM [inhibitor, full curve] | 
27 | COc1ccc(-c2cc(C(=O)OC3CCOC3=O)c3ccccc3n2)cc1 (stereo unspecified) | inconclusive: 56.2 µM [inhibitor, partial curve, poor fit] | 
28 | COc1cccc(CN2CCC(C(=O)N3CCN(c4ccccc4F)CC3)CC2)c1 | inactive | 
29 | C=CCn1c(-c2csc(-c3ccccc3)n2)n[nH]c1=S | inconclusive: 44.7 µM [inhibitor, partial curve, poor fit] | 
30 | CC1(C)CC(=O)c2c(-c3cccnc3)n[nH]c2C1 | inconclusive: 35.5 µM [inhibitor, partial curve, poor fit] | 
31 | CCc1nc(N2CCN(C(=O)c3ccccc3)CC2)c(C#N)c2c1COC(C)(C)C2 | inactive | 
32 | Cc1ccc(C(=O)NCCS(=O)(=O)N2CCN(c3ccccc3F)CC2)cc1[N+](=O)[O-] | inactive | 
33 | CC(=O)c1c(C)[nH]c(C(=O)/C(C#N)=C/c2cccc(C)c2)c1C | inconclusive: 50.1 µM [inhibitor, partial curve, poor fit] | 
34 | CC(Sc1ccc(F)cc1)C(=O)NC(c1ccccc1)c1ccccc1 (stereo unspecified) | inactive | 
35 | Cc1cc(C)c(NC(=O)CN2C(=O)NC3(CCCCC3)C2=O)c(C)c1 | inconclusive: 3.16 µM [inhibitor, full curve, poor fit] | 
36 | Cc1c(CC(=O)NCC(=O)NCC(=O)O)c(=O)oc2cc3oc4c(c3cc12)CCCC4 | inconclusive: 25.1 µM [inhibitor, full curve] | 
37 | Cc1ccccc1Cc1c(C)nc2c(C(=O)NCc3ccc4c(c3)OCO4)cnn2c1C | inactive | 
38 | CN(CCC#N)C(=O)COC(=O)c1ccc2[nH]c3c(c2c1)CCCC3 | inactive | 
39 | CC[C@H](C)[C@@H]1NC(=O)[C@H]([C@@H](C)CC)NC(=O)[C@@H](CC(C)C)NC(=O)[C@H](Cc2ccccc2)NC(=O)[C@H](Cc2ccccc2)NC(=O)[C@@H]2CCCN2C(=O)[C@@H]2CCCN2C(=O)[C@H](C(C)C)NC(=O)[C@H](CC(C)C)NC1=O (cyclo(FF[dL]IILVPP)) | inconclusive: 50.1 µM [inhibitor, partial curve, poor fit] | 
40 | COc1ccc(-c2cnc(C)o2)cc1S(=O)(=O)Nc1ccc(NC(C)=O)cc1 | inconclusive: 126 µM [inhibitor, partial curve, poor fit] | 
41 | COCCNC(=O)c1onc(CSc2ccccc2F)c1C(=O)O | inconclusive: 14.1 µM [inhibitor, partial curve, poor fit] | 
42 | Nc1nc(=S)c2ncn(C3CCCCC3)c2[nH]1 | active: 50.1 µM | 
43 | Cc1cccc(NC(=O)CSCC(=O)Nc2ccc(S(=O)(=O)N3CCCC3)cc2)c1 | inactive | 
44 | CCOP(=O)(OCC)c1nc(Cc2ccc(Cl)cc2)oc1NCc1ccc2c(c1)OCO2 | inconclusive: 89.1 µM [inhibitor, single point] | 

2 entries from above, field by field:
Cc1c(CC(=O)NCC(=O)NCC(=O)O)c(=O)oc2cc3oc4c(c3cc12)CCCC4
  Potency: inconclusive: 25.1 µM [inhibitor, full curve]
Cc1ccccc1Cc1c(C)nc2c(C(=O)NCc3ccc4c(c3)OCO4)cnn2c1C
  Potency: inactive

Continued.

Row | Compound | Potency | activity change, negative = inhibition
45 | CC(C)CC(=O)NC(=S)NNC(=O)c1ccc(NC(=O)C2CCCCC2)cc1 | inconclusive: 50.1 µM [inhibitor, partial curve, poor fit] | 
46 | O=C(/C=C/c1ccc(-c2ccccc2)cc1)NCc1cccnc1 | inactive | 
47 | COc1ccc(NC(=S)N/N=C/c2ccc(F)cc2)cc1OC | inconclusive: 44.7 µM [inhibitor, partial curve, poor fit] | 
48 | COc1ccc(/C(O)=C(\C#N)c2nc3ccccc3n2C)cc1OC | inactive | 
49 | COC(=O)c1c(NC(=O)CN2C(=O)C(=O)N(C(C)C)C2=O)sc(C)c1C | inconclusive: 100 µM [inhibitor, single point] | 
50 | N#Cc1ccc(NN)c([N+](=O)[O-])c1 | inconclusive: 3.98 µM [inhibitor, full curve, poor fit] | 
51 | CCN1CCN(CC(=O)N2c3ccccc3Sc3ccccc32)CC1 | inconclusive: 56.2 µM [inhibitor, partial curve, poor fit] | 
52 | NC(=O)[C@H]1CC2(CC(c3cccc(NC(=O)[C@H]4CCC(=O)N4)c3)=NO2)CN1C(=O)c1ccccc1 (stereo partly specified) | inconclusive: 50.1 µM [inhibitor, partial curve, poor fit] | 
53 | Cc1cc(NCCCOC(C)C)n2c(nc3ccccc32)c1C#N | inconclusive: 89.1 µM [inhibitor, single point] | 
54 | Cc1ccc(S(=O)(=O)N2CCC(CCC(=O)O)CC2)cc1 | inactive | 
55 | CN1C(=O)N(C)C2(C)CC1(C)N(C)C(=O)N2C | inconclusive: 4.47 µM [inhibitor, partial curve, poor fit] | 
56 | CCn1c(SCC(=O)Nc2ccccc2C(=O)OC)nc2ccsc2c1=O | inconclusive: 126 µM [inhibitor, partial curve, poor fit] | 
57 | COc1ccc(/C=C/C(=O)Nc2cc(=O)n(C)c(=O)n2C)cc1 | inconclusive: 3.55 µM [inhibitor, full curve, poor fit] | 
58 | COc1cccc(C(=O)NCc2n[nH]c(=S)n2-c2cccc(C)c2)c1 | inconclusive: 31.6 µM [inhibitor, single point] | 
59 | CC(C)c1ccc2c(c1)C1(CC(=O)Nc3c1sc(C(=O)O)c3-c1ccccc1)C(=O)N2C (stereo unspecified) | inconclusive: 44.7 µM [inhibitor, partial curve] | 
60 | O=C(O)CNS(=O)(=O)c1cccs1 | inconclusive: 28.2 µM [inhibitor, partial curve, poor fit] | 
61 | Cc1ccc(NC(=S)Nc2ccc(OC(F)F)c(Cl)c2)cc1F | inconclusive: 39.8 µM [inhibitor, partial curve, poor fit] | 
62 | Cc1cc(C)cc(Cn2cc(CN3CC(N4CCN(CCO)CC4)CS3(=O)=O)nn2)c1 (stereo unspecified) | inconclusive: 15.8 µM [inhibitor, full curve] | 
63 | Cc1c(C(=O)NC(C)c2ccccc2)[nH]c2c1C(=O)CCC2 (stereo unspecified) | inactive | 
64 | CC(=O)Nc1cccc(C(=O)Nc2cccnc2)c1 | inconclusive: 112 µM [inhibitor, single point] | 
65 | CCN(Cc1ccccc1)C(=O)Cn1c(=O)n(-c2ccccc2)c(=O)c2c1c1cc(C)ccc1n2C | inconclusive: 100 µM [inhibitor, partial curve, poor fit] | 
66 | Cc1cc2nc(-c3cccc(Br)c3)c(CC3CCCCC3)n2c(C)c1Br | inconclusive: 112 µM [inhibitor, single point] | 
